In PubChem BioAssay AID328 (DTP/NCI, 2004) one finds survivor count and T/C data, which are given here for seven molecules.

For this assay, the system named is BDF1 mice, P388 leukemia ip, median survival T/C. Briefly: NCI In Vivo Anticancer Drug Screen. Data for tumor model P388 Leukemia (intraperitoneal) in B6D2F1 (BDF1) mice. Particulars: T/C endpoint: median survival time, higher T/C = longer survival. The procedure, abridged:
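Read-out is survival of treated animals expressed relative to the vehicle group, as a T/C ratio.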

The mark [1] stands for this setting: dose: 25.0 mg/kg/injection, schedule: Q01DX009 (ip), vehicle: Klucel (hydroxypropylcellulose) (HPC).
Where [2] appears, read: dose: 50.0 mg/kg/injection, schedule: Q01DX009 (ip), vehicle: Klucel (hydroxypropylcellulose) (HPC).
Setting [3] is: dose: 200.0 mg/kg/injection, schedule: Q01DX009 (ip), vehicle: Klucel (hydroxypropylcellulose) (HPC).
The mark [4] stands for this setting: dose: 400.0 mg/kg/injection, schedule: Q01DX009 (ip), vehicle: Klucel (hydroxypropylcellulose) (HPC).
[5] abbreviates: dose: 100.0 mg/kg/injection, schedule: Q01DX009 (ip), vehicle: saline.
Setting [6] is: dose: 400.0 mg/kg/injection, schedule: Q01DX009 (ip), vehicle: saline with Tween-80.
The mark [7] stands for this setting: dose: 1.5 mg/kg/injection, schedule: Q01DX009 (ip), vehicle: saline.
Setting [8] is: dose: 3.0 mg/kg/injection, schedule: Q01DX009 (ip), vehicle: saline.

The list is a part of this screen's results and no random one: it gathers tests that were run many times, whatever their T/C, doses with no T/C, and many T/C values between a quarter and a half above the control. Further doses and runs are listed elsewhere. T/C is the treated group as % of the vehicle group. Some entries give survivors of the animals treated and no T/C: the source files T/C as zero there, which appears to mark a toxic dose or a test without result, not a measured value. Some doses without a T/C left all or most animals alive at the check, yet need not have been tolerated: the source hardly ever lists a survival T/C far under the control, and the zero likely stands for such cases as well. Survivors were counted at the toxicity check, usually on the fifth day, unless a day is given; later deaths do not show. Schedules are NCI's codes, read here as Q, the interval in days (D) or hours (H), X, the number of doses. Some entries hold several experiments; the results are listed from low to high. For survival time, the PubChem record calls one and a half times the control and up active, and a quarter to a half above the control has no call in these data; cut-offs in other NCI protocols can differ. Some T/C values carry the count of animals alive at the toxicity check (mostly the fifth day); where none is given, no animal had died by that day.

As to `O=S(=O)(Nc1ccc(NS(=O)(=O)c2ccccc2)cc1)c1ccccc1`, the survivor count is reported as 6 of 6 under setting [1]; 5 of 6 under setting [2]; 6 of 6 (dose: 100.0 mg/kg/injection, schedule: Q01DX009 (ip), vehicle: Klucel (hydroxypropylcellulose) (HPC)); 6 of 6 under setting [3]; 5 of 5 under setting [4].
As for `CCC1C2CC3C4N(C)c5ccc(Br)cc5C45CC(C2C5O)[N+]3(CC(O)CN2CCCCC2)C1O` (stereo not drawn), the survivor count is on record as 2 of 6 under setting [5] and 0 of 6 (dose: 200.0 mg/kg/injection, schedule: Q01DX009 (ip), vehicle: saline).
Take `COc1cc2cc3c4cc(OC)c(OC)cc4cc[n+]3c(C)c2cc1OC`: the T/C is 136 % of control (dose: 16.0 mg/kg/injection, schedule: Q03HX008 (ip), vehicle: saline); 145 % of control (dose: 16.0 mg/kg/injection, schedule: Q03HX024 (ip), vehicle: saline); 125 % of control [5 of 6 alive] under setting [1]; 146 % of control (dose: 25.0 mg/kg/injection, schedule: Q01DX009 (ip), vehicle: saline); 142 % of control (dose: 25.0 mg/kg/injection, schedule: Q04DX003 (ip), vehicle: saline); 145 % of control [9 of 10 alive] (dose: 37.5 mg/kg/injection, schedule: Q04DX003 (ip), vehicle: saline). In addition, the T/C under setting [2] is 145 % of control; the T/C (dose: 50.0 mg/kg/injection, schedule: Q01DX009 (ip), vehicle: saline with Tween-80) is 131 % of control; the T/C (dose: 50.0 mg/kg/injection, schedule: Q04DX002 (ip), vehicle: saline) was 146 % of control; the T/C (dose: 50.0 mg/kg/injection, schedule: Q04DX003 (ip), vehicle: saline) was 146 % of control; the T/C (dose: 64.0 mg/kg/injection, schedule: Q03HX008 (ip), vehicle: saline) was 145 % of control; the T/C under setting [5] is 146 % of control. In addition, the T/C runs as follows: (dose: 100.0 mg/kg/injection, schedule: Q04DX002 (ip), vehicle: saline) 139 % of control; (dose: 100.0 mg/kg/injection, schedule: Q04DX003 (ip), vehicle: saline) 136 % of control; (dose: 128.0 mg/kg/injection, schedule: Q01DX001 (ip), vehicle: saline) 140 % of control; (dose: 128.0 mg/kg/injection, schedule: Q04DX003 (ip), vehicle: saline) 145 % of control; (dose: 128.0 mg/kg/injection, schedule: Q08DX002 (ip), vehicle: saline) 145 % of control; (dose: 200.0 mg/kg/injection, schedule: Q04DX002 (ip), vehicle: saline) 136 % of control. In addition, the T/C was 145 % of control (dose: 256.0 mg/kg/injection, schedule: Q01DX001 (ip), vehicle: saline); 140 % of control (dose: 256.0 mg/kg/injection, schedule: Q01DX009 (ip), vehicle: saline); 140 % of control [6 of 8 alive] (dose: 256.0 mg/kg/injection, schedule: Q03HX008 (ip), vehicle: saline); 140 % of control (dose: 256.0 mg/kg/injection, schedule: Q04DX003 (ip), vehicle: saline); 127 and 145 % of control under setting [6]; 136 % of control (dose: 400.0 mg/kg/injection, schedule: Q01DX009 (ip), vehicle: saline). Also, the T/C was 136 % of control (dose: 512.0 mg/kg/injection, schedule: Q04DX003 (ip), vehicle: saline) and 136 % of control (dose: 1024.0 mg/kg/injection, schedule: Q04DX003 (ip), vehicle: saline). Further, the survivor count reads like this: (dose: 400.0 mg/kg/injection, schedule: Q01DX009 (ip), vehicle: water) 5 of 10; (dose: 512.0 mg/kg/injection, schedule: Q01DX009 (ip), vehicle: saline) 6 of 8; (dose: 1024.0 mg/kg/injection, schedule: Q01DX009 (ip), vehicle: saline) 7 of 8; (dose: 2048.0 mg/kg/injection, schedule: Q01DX001 (ip), vehicle: saline) 7 of 8; (dose: 2048.0 mg/kg/injection, schedule: Q08DX002 (ip), vehicle: saline) 8 of 8.
As for `CN(C)c1ccc(/C=N/NC(N)=S)nc1`, the T/C is, setting by setting: (dose: 19.0 mg/kg/injection, schedule: Q04DX003 (ip), vehicle: saline with Tween-80) 136 % of control; (dose: 29.0 mg/kg/injection, schedule: Q04DX003 (ip), vehicle: saline with Tween-80) 136 % of control; (dose: 30.0 mg/kg/injection, schedule: Q04DX003 (ip), vehicle: saline with Tween-80) 125 % of control; (dose: 44.0 mg/kg/injection, schedule: Q04DX003 (ip), vehicle: saline with Tween-80) 141 % of control.
`COc1cc(OC)c(/C=C/c2cc[n+](C)c3ccccc23)c(OC)c1`: the T/C runs as follows: (dose: 0.75 mg/kg/injection, schedule: Q01DX009 (ip), vehicle: saline) 116, 118, 126, 139 % of control; under setting [7], 127, 139 [5 of 6 alive], 144 % of control; under setting [8], 130 % of control. Besides, the survivor count under setting [7] is on record as 3 of 6; the survivor count under setting [8] was 2 of 6 and 3 of 6; the survivor count (dose: 6.0 mg/kg/injection, schedule: Q01DX009 (ip), vehicle: saline) is 0 of 6.
`Nc1nc(CCl)nc(Nc2ccccc2)n1`: the survivor count under setting [3] is recorded as 3 of 6 and the survivor count under setting [4] was 0 of 6.
For `COc1cc(OC)c(Br)cc1C`, the survivor count (dose: 100.0 mg/kg/injection, schedule: Q01DX009 (ip), vehicle: saline with Tween-80) was 6 of 6; the survivor count (dose: 200.0 mg/kg/injection, schedule: Q01DX009 (ip), vehicle: saline with Tween-80) is recorded as 6 of 6; the survivor count under setting [6] is 5 of 6.
